Test results taken from patent publication US12010995B2, “Oxadiazoline compounds or salts thereof, agrohorticultural fungicides containing the compounds, and methods of using the same” (NIHON NOHYAKU CO., LTD., priority 2018, dated 2024).
Some results were stated once for a whole list of compounds, not compound by compound. Some ranges recur; such a range may be that of the whole group of compounds.

Test system: soybean rust (Phakopsora pachyrhizi)
Assay: Fungicidal efficacy test for soybean rust (foliage spray, preventive)
Type: in vivo
Settings: treatment concentration 50 ppm; foliage spray on soybean (Enrei, 2-leaf stage), 10 ml per pot; assessed about 10 days after inoculation

## CNCc1ccc(C2=NOC(C(F)(F)F)N2)cc1 (stereo not shown) [1-5]
  control value (assessment criteria grade 0-10) against soybean rust: 8 (Control value 80-89%)
